# Data published in PubChem BioAssay AID1347423 (Functional Genomics Laboratory (NCATS/FGL), 2020).
# About 210 (0.4%) of roughly 52,000 sequences were called active.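 Rule for the calls: active = gene whose silencing raises cell survival under the drug, median off-target-corrected z-score across its silencing RNAs 2 or more; inactive = the rest.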 The list shows a part of the results.
# Test: Resistance to Poly (ADP-Ribose) Polymerase inhibitor: Gene Identification via Genome-wide siRNA Screen
# Conditions: mouse BRCA2 R2336H ES cells, olaparib, CellTiter-Glo viability; stronger effect = higher value
# Outline: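 Genome-wide siRNA screen (3 siRNAs/gene, 20 nM) in mouse ES cells carrying hypomorphic BRCA2 R2336H; olaparib 500 nM added 48 h post-transfection, CellTiter-Glo viability 72 h later. Normalized to plate-median negative control; MAD z-scores, gene median, seed-adjusted.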
row,Sequence,z-score
1,GCUCUACCUCAGAUAAAGGTT against 4930517K23Rik,inactive: -0.066
2,CGAAAUGGGAUUAAAACAATT against A830059I20Rik,inactive: -0.708
3,GGCUGUGCAUACCAUGUUGTT against Sart2,inactive: 0.609
4,GGAUUGAGCUACAAGAAUATT against E330016A19Rik,inactive: -0.0566
5,CCUAAAGUCACAUCUAAGATT against D19Bwg1357e,inactive: 0.38
6,GCCCUUAGCUUGUGUUAUCTT against Hagh,inactive: 2.45
7,GGAUGUCUUAGAUGUUUACTT against Mcm7,inactive: -2.61
8,GGUUGCACUACCUUCAUAUTT against 4933426M11Rik,inactive: -2.05
9,GGUUGUGGAACUAGAAUAUTT against Wdr12,inactive: -1.25
10,CCACAGAUUCCAUGAUCCCTT against Gdap1l,inactive: -0.786
11,GCUGGUACAAGGUGUUUGATT against Pqbp1,inactive: 2.49
12,GGCAUACACAGUCUUCAAUTT against Txk,inactive: 0.46
13,GAUGAUUGACGACAUGGAATT against Rgs9bp,inactive: 0.171
14,GCGAUUCUCCGUGAUGUACTT against 3300001H21Rik,inactive: -0.419
15,GGCAGAUGCUAAAAAAGCUTT against Rnf128,inactive: -0.39
16,GGGAAAAAUUUCUUCUGUUTT against Olfr918,inactive: -0.434
17,GCUUUGAGUACUGACACGCTT against Gpr2,inactive: 0.474
18,AAAGCUUAUAACCAUCAACTT against MGC58382,inactive: 0.409
19,GGACAUCACGCAAAUCGUGTT against Nmnat1,inactive: 0.124
20,GGCAGCUUCAGGAACCAAUTT against Krt2-5,inactive: -0.027
21,GGACUUGAUCCCAAAGCUGTT against Mrpl17,inactive: 0.247
22,GGUACAUCGACUUCCUGUATT against Twist1,inactive: -1.4
23,GCUACAACUAGAACAAUUATT against Hook1,inactive: -2.36
24,CGUCACUGAUGUGGCUUUUTT against 4932443D16Rik,inactive: -2.55
25,GGCUGAAAAAAGUGGAGAATT against Sh3bgr,inactive: 0.438
26,GCCUUAUCCUGAGAAUGGCTT against 2900010D03Rik,inactive: 0.26
27,GGGCGGAAAACUAGACCUATT against 1500005I02Rik,inactive: 0.72
28,GGCACUUCUUAAUCCCACATT against Nfe2,inactive: 1.48
